Reference: publication PMC11164484
These are yes or no findings as the source states them, for the method shown. Binding seen in cells or lysates may run through a third protein. Some binding calls cover weakened binding; strength is not graded here.

Molecular target: T1, Crystallin Alpha B (CRYAB) (human (endogenous in BMSCs)) (UniProt P02511)
T1 sequence: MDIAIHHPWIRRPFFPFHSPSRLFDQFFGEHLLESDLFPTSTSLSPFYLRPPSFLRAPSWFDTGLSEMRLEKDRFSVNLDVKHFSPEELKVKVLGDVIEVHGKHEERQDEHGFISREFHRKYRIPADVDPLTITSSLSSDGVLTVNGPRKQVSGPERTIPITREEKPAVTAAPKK
Assay: co-IP; co-IP in BMSCs with CRYAB antibody or FTH1 antibody for immunoprecipitation, Western blot detection

## ferritin heavy chain 1 (FTH1) (from UniProt P02794 1-183)
  binding: binds
